Some of the results follow.
Compound: CN1CC[C@H](c2c(O)cc(O)c3c(=O)cc(-c4ccccc4Cl)oc23)[C@H](O)C1 [alvocidib]
Experiment: log2 fold change, soluble protein after heating vs DMSO (PISA); higher = thermal stabilisation; K562 lysate, 10 uM; active = over 0.2 and 3.5 SD of the protein, either way, in both replicates (recomputed)
In short: (§1)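 A 30 min treatment with 10 μM compound was applied to crude K562 extract at 1 mg/mL protein in PBS pH 7.4 with 1 mM MgCl2. Heating for 3 min spanned 48°C-58°C, after which aliquots were pooled, adjusted to 0.5% NP-40 at 4°C and spun at 21,000xg for 90 min. TMTpro 16plex LC-MS/MS of the supernatant, with channel sums equalised, gave values recorded as log-two fold change in thermal stability against solvent controls, from duplicates.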

Protein sequences, listed by entry. Tags and fused reporters are not part of them. Lines headed by an entry give the natural chain unless they say otherwise; changes in a name come on top.
UniProt Q01850: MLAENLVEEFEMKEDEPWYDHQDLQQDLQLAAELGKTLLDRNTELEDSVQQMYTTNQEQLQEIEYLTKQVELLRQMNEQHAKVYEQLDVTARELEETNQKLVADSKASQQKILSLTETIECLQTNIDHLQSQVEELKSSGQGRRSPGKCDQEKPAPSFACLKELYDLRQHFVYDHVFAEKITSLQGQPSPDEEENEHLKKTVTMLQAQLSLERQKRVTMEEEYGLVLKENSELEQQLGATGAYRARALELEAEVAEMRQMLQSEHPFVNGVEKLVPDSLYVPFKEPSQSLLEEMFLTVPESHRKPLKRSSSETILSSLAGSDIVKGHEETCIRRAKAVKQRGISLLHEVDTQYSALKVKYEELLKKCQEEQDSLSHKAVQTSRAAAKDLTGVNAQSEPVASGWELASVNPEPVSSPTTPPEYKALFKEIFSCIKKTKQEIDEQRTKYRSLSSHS
UniProt O60508: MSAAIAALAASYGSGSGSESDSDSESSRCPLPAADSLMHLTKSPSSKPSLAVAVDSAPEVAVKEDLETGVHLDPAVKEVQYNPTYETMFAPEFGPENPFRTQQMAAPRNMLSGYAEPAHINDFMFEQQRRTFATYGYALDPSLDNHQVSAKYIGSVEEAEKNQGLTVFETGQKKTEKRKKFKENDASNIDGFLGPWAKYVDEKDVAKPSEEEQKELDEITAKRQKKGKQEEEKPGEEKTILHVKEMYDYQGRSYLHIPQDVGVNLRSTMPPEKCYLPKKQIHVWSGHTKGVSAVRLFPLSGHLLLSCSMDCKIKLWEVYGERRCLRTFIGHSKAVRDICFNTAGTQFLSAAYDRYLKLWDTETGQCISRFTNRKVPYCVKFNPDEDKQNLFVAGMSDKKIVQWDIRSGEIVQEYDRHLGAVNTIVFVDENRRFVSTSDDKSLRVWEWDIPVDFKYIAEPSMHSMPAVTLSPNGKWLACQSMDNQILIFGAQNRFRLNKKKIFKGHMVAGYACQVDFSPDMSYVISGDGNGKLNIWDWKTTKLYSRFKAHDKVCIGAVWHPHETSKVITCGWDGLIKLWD
UniProt P60953, whole entry, looked up: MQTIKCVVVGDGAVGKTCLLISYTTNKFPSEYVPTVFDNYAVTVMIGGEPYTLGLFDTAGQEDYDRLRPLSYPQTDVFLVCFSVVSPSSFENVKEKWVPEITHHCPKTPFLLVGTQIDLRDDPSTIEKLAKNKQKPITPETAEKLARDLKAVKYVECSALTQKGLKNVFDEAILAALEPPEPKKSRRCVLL
UniProt P41208: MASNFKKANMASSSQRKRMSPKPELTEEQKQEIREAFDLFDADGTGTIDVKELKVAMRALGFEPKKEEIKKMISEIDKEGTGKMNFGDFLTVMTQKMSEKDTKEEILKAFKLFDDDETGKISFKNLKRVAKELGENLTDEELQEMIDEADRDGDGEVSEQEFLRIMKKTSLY
UniProt Q9UJX2, whole entry, looked up: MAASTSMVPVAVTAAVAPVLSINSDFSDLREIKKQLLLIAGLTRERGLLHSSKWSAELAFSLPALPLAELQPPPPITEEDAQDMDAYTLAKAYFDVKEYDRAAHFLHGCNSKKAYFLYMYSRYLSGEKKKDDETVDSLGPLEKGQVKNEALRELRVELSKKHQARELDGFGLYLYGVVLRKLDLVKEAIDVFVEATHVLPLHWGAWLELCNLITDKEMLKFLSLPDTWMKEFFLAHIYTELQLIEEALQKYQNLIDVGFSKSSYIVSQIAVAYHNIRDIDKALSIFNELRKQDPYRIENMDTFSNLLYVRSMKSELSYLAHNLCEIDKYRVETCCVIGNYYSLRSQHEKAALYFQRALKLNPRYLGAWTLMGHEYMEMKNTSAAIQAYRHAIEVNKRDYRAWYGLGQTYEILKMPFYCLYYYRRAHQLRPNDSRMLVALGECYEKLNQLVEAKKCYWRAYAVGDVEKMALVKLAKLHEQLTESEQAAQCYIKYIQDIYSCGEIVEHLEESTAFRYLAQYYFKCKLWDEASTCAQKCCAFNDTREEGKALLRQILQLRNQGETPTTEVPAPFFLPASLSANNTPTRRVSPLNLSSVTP
UniProt O14519: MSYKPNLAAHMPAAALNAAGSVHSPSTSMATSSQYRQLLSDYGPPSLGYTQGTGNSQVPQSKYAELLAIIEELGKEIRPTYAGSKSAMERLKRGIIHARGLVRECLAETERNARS
UniProt Q7L3B6: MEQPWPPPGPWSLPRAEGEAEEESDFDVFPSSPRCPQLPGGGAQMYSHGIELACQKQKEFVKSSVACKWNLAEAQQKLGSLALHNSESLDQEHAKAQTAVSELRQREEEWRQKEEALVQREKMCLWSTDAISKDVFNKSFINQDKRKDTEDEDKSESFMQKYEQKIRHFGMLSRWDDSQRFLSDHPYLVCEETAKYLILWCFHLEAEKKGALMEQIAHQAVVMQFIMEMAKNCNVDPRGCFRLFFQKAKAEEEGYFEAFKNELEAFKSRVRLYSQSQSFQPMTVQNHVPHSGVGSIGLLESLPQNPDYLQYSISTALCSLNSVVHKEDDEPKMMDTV
UniProt Q8N2Z9: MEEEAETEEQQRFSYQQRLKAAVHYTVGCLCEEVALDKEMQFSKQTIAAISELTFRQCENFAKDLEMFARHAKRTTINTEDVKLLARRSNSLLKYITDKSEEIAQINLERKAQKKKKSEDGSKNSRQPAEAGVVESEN
UniProt Q99459: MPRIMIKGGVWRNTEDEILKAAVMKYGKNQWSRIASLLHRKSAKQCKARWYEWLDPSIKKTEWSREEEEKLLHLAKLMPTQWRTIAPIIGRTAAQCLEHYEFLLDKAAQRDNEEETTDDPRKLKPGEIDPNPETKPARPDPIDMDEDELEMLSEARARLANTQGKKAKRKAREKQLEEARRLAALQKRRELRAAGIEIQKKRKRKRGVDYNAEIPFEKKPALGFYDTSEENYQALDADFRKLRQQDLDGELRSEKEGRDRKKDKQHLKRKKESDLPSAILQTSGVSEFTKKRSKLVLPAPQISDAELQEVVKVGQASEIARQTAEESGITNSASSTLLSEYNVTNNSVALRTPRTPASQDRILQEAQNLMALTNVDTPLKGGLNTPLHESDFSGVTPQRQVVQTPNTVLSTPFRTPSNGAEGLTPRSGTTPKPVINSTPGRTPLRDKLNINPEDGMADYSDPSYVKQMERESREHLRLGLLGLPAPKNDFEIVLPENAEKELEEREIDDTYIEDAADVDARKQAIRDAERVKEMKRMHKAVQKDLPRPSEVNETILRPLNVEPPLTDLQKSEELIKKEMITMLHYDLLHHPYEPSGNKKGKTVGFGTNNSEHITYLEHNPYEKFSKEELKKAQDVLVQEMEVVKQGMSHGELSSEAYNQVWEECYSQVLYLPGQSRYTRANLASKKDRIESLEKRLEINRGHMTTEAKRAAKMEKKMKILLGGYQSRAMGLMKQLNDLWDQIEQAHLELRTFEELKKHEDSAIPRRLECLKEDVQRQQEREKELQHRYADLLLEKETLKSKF
UniProt Q6ZMG9: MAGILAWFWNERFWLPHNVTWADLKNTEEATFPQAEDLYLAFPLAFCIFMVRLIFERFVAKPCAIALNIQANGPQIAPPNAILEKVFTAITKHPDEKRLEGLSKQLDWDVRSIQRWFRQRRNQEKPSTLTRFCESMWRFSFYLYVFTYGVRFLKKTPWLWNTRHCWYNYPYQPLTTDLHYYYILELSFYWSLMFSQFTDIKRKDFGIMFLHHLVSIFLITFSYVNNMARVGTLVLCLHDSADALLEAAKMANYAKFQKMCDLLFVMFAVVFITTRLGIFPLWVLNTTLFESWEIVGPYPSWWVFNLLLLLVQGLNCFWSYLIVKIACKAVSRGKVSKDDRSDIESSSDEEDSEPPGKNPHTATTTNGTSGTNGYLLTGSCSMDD
UniProt Q99618: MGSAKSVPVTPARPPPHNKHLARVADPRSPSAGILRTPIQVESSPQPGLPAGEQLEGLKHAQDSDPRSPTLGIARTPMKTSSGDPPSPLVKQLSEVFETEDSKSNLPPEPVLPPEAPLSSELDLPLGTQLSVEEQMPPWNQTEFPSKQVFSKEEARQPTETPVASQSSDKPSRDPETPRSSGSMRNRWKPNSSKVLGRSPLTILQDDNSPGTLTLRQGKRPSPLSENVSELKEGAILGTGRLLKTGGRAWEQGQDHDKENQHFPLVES
UniProt Q8NHZ8, whole entry, looked up: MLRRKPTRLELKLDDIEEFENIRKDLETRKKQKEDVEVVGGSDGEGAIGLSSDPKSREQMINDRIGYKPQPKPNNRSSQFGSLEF
UniProt Q9Y5S2: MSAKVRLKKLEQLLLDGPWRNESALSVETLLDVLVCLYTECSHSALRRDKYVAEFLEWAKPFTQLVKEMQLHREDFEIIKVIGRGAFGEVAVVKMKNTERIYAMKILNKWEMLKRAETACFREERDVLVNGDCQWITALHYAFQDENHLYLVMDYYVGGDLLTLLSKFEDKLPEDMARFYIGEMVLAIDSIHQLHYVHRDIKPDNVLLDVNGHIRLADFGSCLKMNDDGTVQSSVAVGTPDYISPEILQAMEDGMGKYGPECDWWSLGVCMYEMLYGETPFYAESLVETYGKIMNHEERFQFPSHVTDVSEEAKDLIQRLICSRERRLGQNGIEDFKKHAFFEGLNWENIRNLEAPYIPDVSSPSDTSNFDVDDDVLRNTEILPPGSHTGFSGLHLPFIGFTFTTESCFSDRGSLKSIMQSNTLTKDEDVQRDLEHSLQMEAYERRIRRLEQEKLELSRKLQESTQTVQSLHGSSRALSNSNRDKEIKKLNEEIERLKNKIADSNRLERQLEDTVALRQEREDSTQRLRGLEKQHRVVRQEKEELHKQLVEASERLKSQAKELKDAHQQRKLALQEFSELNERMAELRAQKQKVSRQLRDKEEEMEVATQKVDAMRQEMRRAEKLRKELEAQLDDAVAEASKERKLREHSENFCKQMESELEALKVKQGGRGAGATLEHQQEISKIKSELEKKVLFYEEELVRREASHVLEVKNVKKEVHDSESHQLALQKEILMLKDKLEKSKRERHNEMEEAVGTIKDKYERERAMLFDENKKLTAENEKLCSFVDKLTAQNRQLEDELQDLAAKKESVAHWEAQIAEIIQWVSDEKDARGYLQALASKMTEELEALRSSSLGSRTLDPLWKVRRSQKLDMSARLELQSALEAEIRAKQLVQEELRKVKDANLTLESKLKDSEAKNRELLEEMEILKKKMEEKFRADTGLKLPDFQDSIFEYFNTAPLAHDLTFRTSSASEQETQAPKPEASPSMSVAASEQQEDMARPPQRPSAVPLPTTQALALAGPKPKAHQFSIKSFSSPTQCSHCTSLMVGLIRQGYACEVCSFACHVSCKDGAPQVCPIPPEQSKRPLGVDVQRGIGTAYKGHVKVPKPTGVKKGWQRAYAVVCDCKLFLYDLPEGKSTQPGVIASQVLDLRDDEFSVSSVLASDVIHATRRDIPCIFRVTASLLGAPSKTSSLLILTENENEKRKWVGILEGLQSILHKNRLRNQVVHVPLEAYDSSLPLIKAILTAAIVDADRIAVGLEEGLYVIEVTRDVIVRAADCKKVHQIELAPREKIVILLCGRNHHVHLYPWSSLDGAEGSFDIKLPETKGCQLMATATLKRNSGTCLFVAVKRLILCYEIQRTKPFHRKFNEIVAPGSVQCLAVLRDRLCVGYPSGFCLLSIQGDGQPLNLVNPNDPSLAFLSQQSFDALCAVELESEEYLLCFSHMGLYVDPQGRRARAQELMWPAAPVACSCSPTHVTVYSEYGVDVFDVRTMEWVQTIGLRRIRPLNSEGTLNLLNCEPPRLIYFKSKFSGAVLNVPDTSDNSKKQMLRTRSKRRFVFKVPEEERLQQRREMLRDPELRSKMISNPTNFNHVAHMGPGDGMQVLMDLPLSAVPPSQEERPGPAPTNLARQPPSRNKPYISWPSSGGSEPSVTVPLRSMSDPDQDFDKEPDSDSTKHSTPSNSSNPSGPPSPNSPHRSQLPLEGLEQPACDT
UniProt Q6P2H3: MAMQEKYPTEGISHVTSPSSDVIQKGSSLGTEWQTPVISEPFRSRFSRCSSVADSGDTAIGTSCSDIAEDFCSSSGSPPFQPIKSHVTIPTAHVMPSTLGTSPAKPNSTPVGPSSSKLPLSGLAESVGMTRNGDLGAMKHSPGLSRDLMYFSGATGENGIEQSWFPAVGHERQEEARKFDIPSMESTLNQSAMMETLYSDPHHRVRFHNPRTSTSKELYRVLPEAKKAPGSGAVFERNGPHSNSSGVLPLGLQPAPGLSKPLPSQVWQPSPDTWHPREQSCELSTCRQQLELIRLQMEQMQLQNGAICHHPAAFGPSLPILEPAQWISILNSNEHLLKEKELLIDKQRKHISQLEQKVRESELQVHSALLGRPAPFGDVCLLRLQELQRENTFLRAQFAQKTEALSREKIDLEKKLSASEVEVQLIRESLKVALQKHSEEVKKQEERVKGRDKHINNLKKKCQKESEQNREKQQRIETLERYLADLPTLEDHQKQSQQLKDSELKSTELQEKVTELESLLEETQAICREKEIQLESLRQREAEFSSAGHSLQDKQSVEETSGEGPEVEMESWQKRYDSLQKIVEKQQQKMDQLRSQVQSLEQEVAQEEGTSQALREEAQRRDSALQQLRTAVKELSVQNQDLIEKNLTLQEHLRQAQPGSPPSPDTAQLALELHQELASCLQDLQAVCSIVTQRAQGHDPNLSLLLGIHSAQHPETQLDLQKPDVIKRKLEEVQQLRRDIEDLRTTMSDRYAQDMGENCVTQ

log2 fold change, inactive:
CDR2 (UniProt Q01850) 0.024, CDC40 (UniProt O60508) 0.016, CDC42 (UniProt P60953) 0.023, CETN2 (UniProt P41208) -0.011, CDC23 (UniProt Q9UJX2) 0.042, CDK2AP1 (UniProt O14519) -0.02, CDC37L1 (UniProt Q7L3B6) -0.018, CENPS (UniProt Q8N2Z9) -0.03, CDC5L (UniProt Q99459) 0.01, CERS6 isoform 2 (UniProt Q6ZMG9) 0.001

Compound: CN1CCc2c(c3ccccc3n2Cc2ccc(C(=O)NO)cc2)C1 [Tubastatin A]
Experiment: as above
In short: as §1

log2 fold change, inactive:
CEP350 (UniProt Q5VT06) -0.077, CEP170 (UniProt Q5SW79) -0.046, CFH (UniProt P08603) 0.018, CFL2 (UniProt Q9Y281) 0.015, CFDP1 (UniProt Q9UEE9) 0.057, CEP97 (UniProt Q8IW35) -0.083, CDCA3 (UniProt Q99618) 0.076, CDC42 isoform 1 (UniProt P60953) 0.057, CENPH (UniProt Q9H3R5) -0.001, CERS2 (UniProt Q96G23) -0.113, CDC45 isoform 3 (UniProt O75419) -0.138, CFL1 (UniProt P23528) 0.032, CENPK (UniProt Q9BS16) 0.006, CDCP1 (UniProt Q9H5V8) 0.022, CDC26 (UniProt Q8NHZ8) 0.006, CENPU (UniProt Q71F23) -0.017, CDC42BPB (UniProt Q9Y5S2) 0.039, CEP85 isoform 2 (UniProt Q6P2H3) -0.056, CDKAL1 (UniProt Q5VV42) 0.008, CEP135 (UniProt Q66GS9) -0.014, CDK19 (UniProt Q9BWU1) 0.036, CEP76 (UniProt Q8TAP6) -0.015, CDIPT (UniProt O14735) -0.039, CDR2 (UniProt Q01850) 0.048, CDC40 (UniProt O60508) 0.147, CDC42 (UniProt P60953) 0.045, CETN2 (UniProt P41208) -0.049, CDC23 (UniProt Q9UJX2) -0.063, CDK2AP1 (UniProt O14519) 0.14, CDC37L1 (UniProt Q7L3B6) -0.008, CENPS (UniProt Q8N2Z9) 0.014, CDC5L (UniProt Q99459) -0.05, CERS6 isoform 2 (UniProt Q6ZMG9) 0

Compound: CNC(=O)C1=CC=CC=C1NC2=NC(=NC=C2Cl)NC3=C(C=C(C=C3)N4CCOCC4)OC
Experiment: as above
In short: as §1

log2 fold change, inactive:
CEP350 (UniProt Q5VT06) 0.007, CEP170 (UniProt Q5SW79) -0.068, CFH (UniProt P08603) 0.006, CFL2 (UniProt Q9Y281) 0.015, CFDP1 (UniProt Q9UEE9) 0.042, CEP97 (UniProt Q8IW35) -0.026, CDCA3 (UniProt Q99618) -0.016, CDC42 isoform 1 (UniProt P60953) -0.065, CENPH (UniProt Q9H3R5) 0.032, CERS2 (UniProt Q96G23) 0.094, CDC45 isoform 3 (UniProt O75419) 0.031, CFL1 (UniProt P23528) -0.011, CENPK (UniProt Q9BS16) -0.008, CDCP1 (UniProt Q9H5V8) -0.036, CDC26 (UniProt Q8NHZ8) -0.008, CENPU (UniProt Q71F23) 0.029, CDC42BPB (UniProt Q9Y5S2) -0.167, CEP85 isoform 2 (UniProt Q6P2H3) 0.037, CDKAL1 (UniProt Q5VV42) -0.004, CEP135 (UniProt Q66GS9) 0.101, CDK19 (UniProt Q9BWU1) -0.101, CEP76 (UniProt Q8TAP6) 0.03, CDIPT (UniProt O14735) -0.005, CDR2 (UniProt Q01850) 0.043, CDC40 (UniProt O60508) 0.045, CDC42 (UniProt P60953) -0.069, CETN2 (UniProt P41208) -0.02, CDC23 (UniProt Q9UJX2) 0.003, CDK2AP1 (UniProt O14519) 0.203, CDC37L1 (UniProt Q7L3B6) 0.069, CENPS (UniProt Q8N2Z9) -0.005, CDC5L (UniProt Q99459) 0.005, CERS6 isoform 2 (UniProt Q6ZMG9) 0.099
